From paper PMC9226075
Results are given in words; binding and its absence hold for the method and conditions named. Binding seen in cells or lysates may run through a third protein. Some entries that bind do so weakly or less than the wild type. For part of these data: Where a sequence is shown, tags or fusion partners need not be part of it.

Protein sequences, listed by entry. Tags and fused reporters are not part of them.
UniProt Q91Z31: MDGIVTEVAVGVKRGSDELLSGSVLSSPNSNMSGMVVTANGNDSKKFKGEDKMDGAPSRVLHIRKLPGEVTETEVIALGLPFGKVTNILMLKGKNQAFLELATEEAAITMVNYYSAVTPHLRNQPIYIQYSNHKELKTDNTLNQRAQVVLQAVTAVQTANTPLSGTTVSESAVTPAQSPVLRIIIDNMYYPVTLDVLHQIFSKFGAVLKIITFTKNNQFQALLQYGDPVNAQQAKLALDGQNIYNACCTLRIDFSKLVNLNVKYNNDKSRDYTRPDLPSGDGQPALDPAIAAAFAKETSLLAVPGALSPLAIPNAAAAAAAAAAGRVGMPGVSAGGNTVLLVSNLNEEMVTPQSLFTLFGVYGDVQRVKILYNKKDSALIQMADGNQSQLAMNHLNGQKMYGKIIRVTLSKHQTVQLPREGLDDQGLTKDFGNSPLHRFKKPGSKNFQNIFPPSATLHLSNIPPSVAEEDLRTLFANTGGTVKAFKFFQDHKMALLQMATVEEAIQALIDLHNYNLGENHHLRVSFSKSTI

Key:
FLAG-hnRNPH1 (mouse) = target: T1, FLAG-hnRNPH1 (mouse) (UniProt O35737); assay: co-IP; HEK293T cells co-transfected with FLAG-hnRNPH1 and MYC-PTBP2 or MYC-SRSF3, 36 h; immunoprecipitated with anti-FLAG antibody, immunoblotted with FLAG and MYC antibodies
T1 sequence: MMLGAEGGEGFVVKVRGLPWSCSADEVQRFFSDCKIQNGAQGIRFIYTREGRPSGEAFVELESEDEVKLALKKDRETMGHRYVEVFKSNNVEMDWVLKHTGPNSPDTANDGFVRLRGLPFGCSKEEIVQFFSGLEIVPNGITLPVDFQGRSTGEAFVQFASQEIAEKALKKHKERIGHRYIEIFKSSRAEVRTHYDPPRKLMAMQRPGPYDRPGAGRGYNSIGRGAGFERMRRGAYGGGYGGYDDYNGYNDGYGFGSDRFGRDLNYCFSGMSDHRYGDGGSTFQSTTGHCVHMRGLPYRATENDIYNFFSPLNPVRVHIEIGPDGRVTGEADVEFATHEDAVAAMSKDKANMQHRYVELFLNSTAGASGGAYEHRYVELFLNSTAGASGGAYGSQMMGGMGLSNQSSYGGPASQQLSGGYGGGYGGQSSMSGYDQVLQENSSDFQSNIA

[1] = target: T2, hnRNPH1 (mouse (endogenous in testis and ovary)) (UniProt O35737); assay: co-IP; endogenous proteins of mouse testis lysate, hnRNPH1 antibody, protein A/G magnetic beads, overnight at 4 °C; extracts treated with or without RNase A (1 µg/ml); IgG as negative control; western blot
T2 sequence: T1 sequence

[2] = target: T2, hnRNPH1 (mouse (endogenous in testis and ovary)); assay: co-IP; endogenous proteins of E17.5 mouse ovaries, immunoprecipitation for hnRNPH1; western blot

Molecule: MYC-PTBP2 (from UniProt Q91Z31 1-531)
- binding (FLAG-hnRNPH1 (mouse)): binds

Molecule: PTBP2 (from UniProt Q91Z31 1-531)
- binding [1]: binds
- binding [2]: binds

B1: SRSF3 (protein, UniProt P84104 1-164)
chain: MHRDSCPLDCKVYVGNLGNNGNKTELERAFGYYGPLRSVWVARNPPGFAFVEFEDPRDAADAVRELDGRTLCGCRVRVELSNGEKRSRNRGPPPSWGRRPRDDYRRRSPPPRRRSPRRRSFSRSRSRSLSRDRRRERSLSRERNHKPSRSFSRSRSRSRSNERK
- binding [1]: binds
- binding [2]: binds

B2: MYC-SRSF3 (protein, UniProt P84104 1-164)
chain: B1 chain
- binding (FLAG-hnRNPH1 (mouse)): binds
